Reference: paper doi:10.1101/2023.06.01.543131
Results are given in words; binding and its absence hold for the method and conditions named. In cells and extracts the contact can be indirect.

Protein sequences, listed by entry. Tags and fused reporters are not part of them.
UniProt P60484: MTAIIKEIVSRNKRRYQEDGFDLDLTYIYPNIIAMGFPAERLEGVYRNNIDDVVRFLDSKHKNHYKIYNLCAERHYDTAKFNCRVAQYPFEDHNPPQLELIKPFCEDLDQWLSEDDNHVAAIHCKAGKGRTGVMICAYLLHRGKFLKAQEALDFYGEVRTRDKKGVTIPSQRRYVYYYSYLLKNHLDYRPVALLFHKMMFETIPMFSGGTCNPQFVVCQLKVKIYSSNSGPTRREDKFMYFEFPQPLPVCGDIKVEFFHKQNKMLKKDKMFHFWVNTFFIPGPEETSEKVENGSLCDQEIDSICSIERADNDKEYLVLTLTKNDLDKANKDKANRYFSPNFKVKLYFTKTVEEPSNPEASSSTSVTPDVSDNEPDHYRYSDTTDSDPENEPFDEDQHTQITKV

Biological target: PTEN (human (endogenous in A375)) (UniProt P60484)
Experiment: co-IP

B1: FRA1 (protein, UniProt P15407 1-271)
chain: MFRDFGEPGPSSGNGGGYGGPAQPPAAAQAAQQKFHLVPSINTMSGSQELQWMVQPHFLGPSSYPRPLTYPQYSPPQPRPGVIRALGPPPGVRRRPCEQISPEEEERRRVRRERNKLAAAKCRNRRKELTDFLQAETDKLEDEKSGLQREIEELQKQKERLELVLEAHRPICKIPEGAKEGDTGSTSGTSSPPAPCRPVPCISLSPGPVLEPEALHTPTLMTTPSLTPFTPSLVFTYPSTPEPCASAHRKSSSSSGDPSSDPLGSPTLLAL
  binding: no binding
